Measurements reported in PubChem BioAssay AID686938 (Drosophila RNAi Screening Center, 2013)

Aim: 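Knock-downs reducing store-operated calcium influx in Drosophila cells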 (primary screen)
Cells: Drosophila S2R+ cells
Knock-down reagent: long dsRNA against Drosophila genes, about 0.25 µg dsRNA per well, roughly 10,000 cells
Duration: 5 days of knock-down before the calcium assay
Conditions: thapsigargin (SERCA pump blocker) to empty calcium stores; entry signal taken 4 min after adding it
Measurement: 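Duplicate raw fluo-4 intensities per well from a plate reader, at rest and four minutes after thapsigargin emptied calcium stores; entry-to-rest ratio filled for only some wells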
Reading the numbers: calcium entry signal: higher = stronger calcium signal after store depletion; resting calcium signal: higher = higher resting calcium signal
Units: calcium entry signal in fluorescence units; resting calcium signal in fluorescence units
Hit rule: 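Called when the plate z-score of the entry-to-rest ratio, mean of duplicates, falls below −3; wells with low overall dye signal (Fmax z below −2) or more than five off-targets excluded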
Calls: active = strongly reduced calcium entry; inactive = no strong reduction
The screen tested about 23,000 reagents; below is an unselected part of those with a known target gene and a result. Of all reagents, 75 (0.33%) were called active. 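Raw plate signals without normalisation; calls rest on plate z-scores that were not deposited; ratio present for only 364 wells.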 Entries without a mark were called inactive. The numbers tell different reagents against one gene apart. The record does not give: the dose of the treatment.

scrib (scribble) #1
- calcium entry signal, replicate 1: 3.15e7
- calcium entry signal, replicate 2: 4.19e7
- resting calcium signal, replicate 1: 1.52e7
- resting calcium signal, replicate 2: 2.04e7

scrib (scribble) #2
- calcium entry signal, replicate 1: 3.78e7
- calcium entry signal, replicate 2: 3.90e7
- resting calcium signal, replicate 1: 1.73e7
- resting calcium signal, replicate 2: 2.15e7

scrib (scribble) #3
- calcium entry signal, replicate 1: 2.64e7
- calcium entry signal, replicate 2: 3.08e7
- resting calcium signal, replicate 1: 1.21e7
- resting calcium signal, replicate 2: 1.38e7

scrib (scribble) #4
- calcium entry signal, replicate 1: 2.10e7
- calcium entry signal, replicate 2: 3.95e7
- resting calcium signal, replicate 1: 1.20e7
- resting calcium signal, replicate 2: 1.66e7

Gld (Glucose dehydrogenase)
- calcium entry signal, replicate 1: 4.18e7
- calcium entry signal, replicate 2: 4.69e7
- resting calcium signal, replicate 1: 2.08e7
- resting calcium signal, replicate 2: 2.04e7

CG31248
- calcium entry signal, replicate 1: 3.29e7
- calcium entry signal, replicate 2: 3.42e7
- resting calcium signal, replicate 1: 1.83e7
- resting calcium signal, replicate 2: 1.54e7

CG2839
- calcium entry signal, replicate 1: 2.91e7
- calcium entry signal, replicate 2: 3.19e7
- resting calcium signal, replicate 1: 1.50e7
- resting calcium signal, replicate 2: 1.54e7

CG6638
- calcium entry signal, replicate 1: 2.78e7
- calcium entry signal, replicate 2: 4.58e7
- resting calcium signal, replicate 1: 1.46e7
- resting calcium signal, replicate 2: 2.09e7

Ube4B (Ubiquitination factor E4B)
- calcium entry signal, replicate 1: 4.20e7
- resting calcium signal, replicate 1: 2.15e7

Ahcy (Adenosylhomocysteinase)
- calcium entry signal, replicate 1: 2.32e7
- calcium entry signal, replicate 2: 2.68e7
- resting calcium signal, replicate 1: 1.25e7
- resting calcium signal, replicate 2: 1.38e7

CG9316
- calcium entry signal, replicate 1: 3.36e7
- calcium entry signal, replicate 2: 5.62e7
- resting calcium signal, replicate 1: 1.72e7
- resting calcium signal, replicate 2: 2.44e7

Dip-C (Dipeptidase C)
- calcium entry signal, replicate 1: 3.82e7
- calcium entry signal, replicate 2: 4.82e7
- resting calcium signal, replicate 1: 1.65e7
- resting calcium signal, replicate 2: 2.02e7

CG12984
- calcium entry signal, replicate 1: 3.11e7
- calcium entry signal, replicate 2: 5.11e7
- resting calcium signal, replicate 1: 1.53e7
- resting calcium signal, replicate 2: 2.25e7

CG4101
- calcium entry signal, replicate 1: 5.13e7
- calcium entry signal, replicate 2: 7.85e7
- resting calcium signal, replicate 1: 2.40e7
- resting calcium signal, replicate 2: 2.94e7

Hrb27C (Heterogeneous nuclear ribonucleoprotein at 27C)
- calcium entry signal, replicate 1: 4.30e7
- resting calcium signal, replicate 1: 2.02e7

cerv (cervantes)
- calcium entry signal, replicate 1: 2.62e7
- calcium entry signal, replicate 2: 3.29e7
- resting calcium signal, replicate 1: 1.38e7
- resting calcium signal, replicate 2: 1.49e7

CG11444
- calcium entry signal, replicate 1: 4.17e7
- calcium entry signal, replicate 2: 4.10e7
- resting calcium signal, replicate 1: 1.80e7
- resting calcium signal, replicate 2: 2.01e7

CG34160
- calcium entry signal, replicate 1: 3.63e7
- calcium entry signal, replicate 2: 5.40e7
- resting calcium signal, replicate 1: 1.76e7
- resting calcium signal, replicate 2: 2.38e7

Vti1a (Vesicle transport through interaction with t-SNAREs 1a)
- calcium entry signal, replicate 1: 4.44e7
- calcium entry signal, replicate 2: 3.57e7
- resting calcium signal, replicate 1: 2.18e7
- resting calcium signal, replicate 2: 1.80e7

MED19 (Mediator complex subunit 19)
- calcium entry signal, replicate 1: 3.08e7
- calcium entry signal, replicate 2: 2.85e7
- resting calcium signal, replicate 1: 2.61e7
- resting calcium signal, replicate 2: 1.49e7

CCDC151 (Coiled-coil domain containing protein 151)
- calcium entry signal, replicate 1: 3.29e7
- calcium entry signal, replicate 2: 3.66e7
- resting calcium signal, replicate 1: 1.63e7
- resting calcium signal, replicate 2: 1.55e7

alpha4GT1 (alpha1,4-galactosyltransferase 1)
- calcium entry signal, replicate 1: 4.09e7
- resting calcium signal, replicate 1: 2.35e7

CG1213
- calcium entry signal, replicate 1: 4.46e7
- calcium entry signal, replicate 2: 3.97e7
- resting calcium signal, replicate 1: 2.22e7
- resting calcium signal, replicate 2: 1.81e7

CG32280
- calcium entry signal, replicate 1: 3.56e7
- calcium entry signal, replicate 2: 2.97e7
- resting calcium signal, replicate 1: 1.51e7
- resting calcium signal, replicate 2: 1.38e7

CG13127
- calcium entry signal, replicate 1: 2.77e7
- calcium entry signal, replicate 2: 4.51e7
- resting calcium signal, replicate 1: 1.31e7
- resting calcium signal, replicate 2: 2.22e7

GNBP2 (Gram-negative bacteria binding protein 2)
- calcium entry signal, replicate 1: 3.75e7
- calcium entry signal, replicate 2: 4.89e7
- resting calcium signal, replicate 1: 1.69e7
- resting calcium signal, replicate 2: 3.21e7

CG30197
- calcium entry signal, replicate 1: 3.27e7
- calcium entry signal, replicate 2: 2.79e7
- resting calcium signal, replicate 1: 1.58e7
- resting calcium signal, replicate 2: 1.15e7

An excerpt from the list above:
CG2839
- calcium entry signal, replicate 1: 2.91e7
- calcium entry signal, replicate 2: 3.19e7
- resting calcium signal, replicate 1: 1.50e7
- resting calcium signal, replicate 2: 1.54e7

CG6638
- calcium entry signal, replicate 1: 2.78e7
- calcium entry signal, replicate 2: 4.58e7
- resting calcium signal, replicate 1: 1.46e7
- resting calcium signal, replicate 2: 2.09e7
